Results as given in paper PMC7363780.
These are yes or no findings as the source states them, for the method shown. In cells and extracts the contact can be indirect. A yes stands for co-enrichment or nearness to the bait. Other partners may have been found. Where a sequence is shown, tags or fusion partners need not be part of it.

What follows are binders tested against T1, Cip1-13myc (S. cerevisiae) (UniProt Q02606) (assay: affinity purification with mass spectrometry; large-scale anti-myc immunoprecipitation of Cip1-13myc from extract of about 10 g of exponentially growing cells; 6 washes with lysis buffer; elution with 8 M urea; differential SDS-PAGE bands analysed by mass spectrometry; mock IP from untagged cells as control).
T1 sequence: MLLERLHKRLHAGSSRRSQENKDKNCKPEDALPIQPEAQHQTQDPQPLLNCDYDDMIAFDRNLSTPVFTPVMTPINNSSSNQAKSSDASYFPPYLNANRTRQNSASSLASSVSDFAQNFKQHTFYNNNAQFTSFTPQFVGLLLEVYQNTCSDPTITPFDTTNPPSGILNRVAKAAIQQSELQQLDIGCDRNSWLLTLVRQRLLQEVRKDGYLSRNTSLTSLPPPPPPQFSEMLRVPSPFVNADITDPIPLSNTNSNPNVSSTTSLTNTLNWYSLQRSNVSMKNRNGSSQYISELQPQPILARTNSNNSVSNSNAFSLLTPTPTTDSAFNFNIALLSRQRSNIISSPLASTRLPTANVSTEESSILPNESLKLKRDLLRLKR

| Binder | binding |
| --- | --- |
| Ccr4 (protein, UniProt P31384 1-837) MNDPSLLGYPNVGPQQQQQQQQQQHAGLLGKGTPNALQQQLHMNQLTGIPPPGLMNNSDVHTSSNNNSRQLLDQLANGNANMLNMNMDNNNNNNNNNNNNNNNGGGSGVMMNASTAAVNSIGMVPTVGTPVNINVNASNPLLHPHLDDPSLLNNPIWKLQLHLAAVSAQSLGQPNIYARQNAMKKYLATQQAQQAQQQAQQQAQQQVPGPFGPGPQAAPPALQPTDFQQSHIAEASKSLVDCTKQALMEMADTLTDSKTAKKQQPTGDSTPSGTATNSAVSTPLTPKIELFANGKDEANQALLQHKKLSQYSIDEDDDIENRMVMPKDSKYDDQLWHALDLSNLQIFNISANIFKYDFLTRLYLNGNSLTELPAEIKNLSNLRVLDLSHNRLTSLPAELGSCFQLKYFYFFDNMVTTLPWEFGNLCNLQFLGVEGNPLEKQFLKILTEKSVTGLIFYLRDNRPEIPLPHERRFIEINTDGEPQREYDSLQQSTEHLATDLAKRTFTVLSYNTLCQHYATPKMYRYTPSWALSWDYRRNKLKEQILSYDSDLLCLQEVESKTFEEYWVPLLDKHGYTGIFHAKARAKTMHSKDSKKVDGCCIFFKRDQFKLITKDAMDFSGAWMKHKKFQRTEDYLNRAMNKDNVALFLKLQHIPSGDTIWAVTTHLHWDPKFNDVKTFQVGVLLDHLETLLKEETSHNFRQDIKKFPVLICGDFNSYINSAVYELINTGRVQIHQEGNGRDFGYMSEKNFSHNLALKSSYNCIGELPFTNFTPSFTDVIDYIWFSTHALRVRGLLGEVDPEYVSKFIGFPNDKFPSDHIPLLARFEFMKTNTGSKKV | binds |
| Lge1 (protein, UniProt Q02796 1-332) MSGYTGNNYSRYSSTPPRQRGGYHHARRSRGGAGGSYYRGGNASYGARYNSDYEQPPQEGDLRQTGAYYRNGYTDTRPYYSANSRHYQAQPSPRYNNGTNSYHLPQRGNSQDTNGRTTSASQEDNDEKRVKSRYRNMQADHPRQQPMSVGSTSSRNGSSGNSSTSSTSNGLPPPPSVSSITNNRSYHSSAYPYSSSHTYNNYHHRETPPPPPSNGYYAKGYPVHVPENRSNSDGSSSSVVKKKRILDMKDSPFIYLTDFDKNVKKTNNTESECEKAREVFKESDSIDSALEELNLKINSNELELRLLNNQCDKHALNIQLTQEKLDSLLLMQ | binds |
| Cln1 (protein, UniProt P20437 1-546) MNHSEVKTGLIVTAKQTYYPIELSNAELLTHYETIQEYHEEISQNVLVQSSKTKPDIKLIDQQPEMNPHQTREAIVTFLYQLSVMTRVSNGIFFHAVRFYDRYCSKRVVLKDQAKLVVGTCLWLAAKTWGGCNHIINNVSIPTGGRFYGPNPRARIPRLSELVHYCGGSDLFDESMFIQMERHILDTLNWDVYEPMINDYILNVDENCLIQYELYKNQLQNNNSNGKEWSCKRKSQSSDDSDATVEEHISSSPQSTGLDGDTTTMDEDEELNSKIKLINLKRFLIDLSCWQYNLLKFELYEICNGMFSIINKFTNQDQGPFLSMPIGNDINSNTQTQVFSIIINGIVNSPPSLVEVYKEQYGIVPFILQVKDYNLELQKKLQLASTIDLTRKIAVNSRYFDQNASSSSVSSPSTYSSGTNYTPMRNFSAQSDNSVFSTTNIDHSSPITPHMYTFNQFKNESACDSAISVSSLPNQTQNGNMPLSSNYQNMMLEERNKENRIPNSSSAEIPQRAKFMTTGIFQNTGELTNRASSISLSLRNHNSSQL | binds |
| Caf120 (protein, UniProt P53836 1-1060) MRIFSGDNKVVDSLASNPGLMSPSNFGGDFGSRLKVNVTSKKKLNDSSPTSPMESSPVSPELVPILTLLNAHTHRRYHEGVFLILQDLNNNGTHAARKWKDVYGVLLGTQLALWDAKELAEFTDPSCPVSEKKLKEVASKPTYINLTDATLRTLDNSDNIVMECGKNLTNALVVSTTLKNRYFLQFGNKESFNAWNSAIRLCLYECSSLQEAYTGAFISSRGAKLGDIRILLTNRKYDYKDWVSVRFGAGMPWKRCYAVISQSSSKKKGHFGEINLYENDKKVKKNHAMATIVEAKALYAVYPSSPKLIDSSTIIKVVGSVKFEKKESAQEKDVFIMPEKHQAVPSYDTIIRFLIPAMDTFKLYGRPEKLLSSKNDPHSLLFGLPVLPHIYYLEVEDLLPLTNSVSSLHWSNNEWKEHISDILQRKIAQGYCGCNSTSNITSPLPSPFLGSADLFERADGVLSPKLSYGSKSSSNNSSKNSLPKRERVKLSSSSEQDLNNSDSPSIKRKSPPLVISESPHKVHTPTDASFRTRVTEGSPYAKQRHPKPFASSVNDSPSDRAKSRTVPYNNNDRKATTPEKFERGETSCGKNVDESLEKVRNMKLEIPESNFDKFMTDKNLLSVDSKCSNEKKLSVESDLSAIYEKYSNGPFGHTEGLNGSSDETYLRFQRASVHSESNYNSRKSFTPSDFSNGNEEEHAVLQELNSLTQRINELGMESINSNSDSDRINGSYSQVDFGNNNDEDDMNLFDPDFMAQDQLRAEERDYNKDDRTPLAKVPAAFQSTGLGITPDDDIERQYITEHRSRHEVPKRSPEKPSNPLEIGNPYAKPGTRLNTTHTHSKTDRSITPQRGQPVPSGQQISSYVQPANINSPNKMYGANNSAMGSPRNPKTRAPPGPYNQGWNNRPSPSNIYQRPHPSDTQPQAYHLPGNPYSTGNRPNMQAQYHPQQVPMPILQQPNRPYQPYAMNTHMGSPGGYAGAAPPFQPANVNYNTRPQQPWPTPNSPSAHYRPPPNLNQPQNGSAGYYRPPAPQLQNSQARPQKKDGFSQFMPSATTKNPYAQ | binds |
